These are yes or no findings as the source states them, for the method shown. Binding seen in cells or lysates may run through a third protein. Some results given as binding are weak or reduced against the parent protein; the word gives no strength.

Amino acid sequences for entries named in this document (tags omitted).
UniProt O95782: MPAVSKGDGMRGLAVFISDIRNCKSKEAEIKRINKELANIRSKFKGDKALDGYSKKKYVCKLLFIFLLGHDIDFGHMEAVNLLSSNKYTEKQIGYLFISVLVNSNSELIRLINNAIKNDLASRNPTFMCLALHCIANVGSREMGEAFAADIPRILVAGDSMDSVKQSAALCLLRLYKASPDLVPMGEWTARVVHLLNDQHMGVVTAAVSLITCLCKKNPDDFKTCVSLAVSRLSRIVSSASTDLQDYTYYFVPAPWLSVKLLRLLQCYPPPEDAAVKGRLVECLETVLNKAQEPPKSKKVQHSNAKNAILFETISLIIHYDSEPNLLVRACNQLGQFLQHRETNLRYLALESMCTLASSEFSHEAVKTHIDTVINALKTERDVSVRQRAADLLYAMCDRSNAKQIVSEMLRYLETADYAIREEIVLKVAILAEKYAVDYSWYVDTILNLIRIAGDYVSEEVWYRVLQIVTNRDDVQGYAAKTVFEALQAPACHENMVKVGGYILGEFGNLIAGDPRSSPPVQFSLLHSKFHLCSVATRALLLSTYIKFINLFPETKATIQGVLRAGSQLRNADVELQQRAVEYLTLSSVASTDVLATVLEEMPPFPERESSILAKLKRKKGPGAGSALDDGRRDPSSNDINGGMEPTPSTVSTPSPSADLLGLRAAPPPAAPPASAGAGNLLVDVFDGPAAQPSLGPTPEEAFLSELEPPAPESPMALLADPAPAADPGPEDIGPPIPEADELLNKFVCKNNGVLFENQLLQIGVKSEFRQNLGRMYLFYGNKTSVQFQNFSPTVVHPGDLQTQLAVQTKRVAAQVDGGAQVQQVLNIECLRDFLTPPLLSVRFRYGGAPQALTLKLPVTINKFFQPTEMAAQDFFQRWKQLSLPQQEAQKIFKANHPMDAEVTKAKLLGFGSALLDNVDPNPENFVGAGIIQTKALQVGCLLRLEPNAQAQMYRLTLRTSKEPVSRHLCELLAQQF

In assay [1] the target is T1, MYO1F, expressed from a plasmid in HEK293T cells (UniProt O00160).
T1 sequence: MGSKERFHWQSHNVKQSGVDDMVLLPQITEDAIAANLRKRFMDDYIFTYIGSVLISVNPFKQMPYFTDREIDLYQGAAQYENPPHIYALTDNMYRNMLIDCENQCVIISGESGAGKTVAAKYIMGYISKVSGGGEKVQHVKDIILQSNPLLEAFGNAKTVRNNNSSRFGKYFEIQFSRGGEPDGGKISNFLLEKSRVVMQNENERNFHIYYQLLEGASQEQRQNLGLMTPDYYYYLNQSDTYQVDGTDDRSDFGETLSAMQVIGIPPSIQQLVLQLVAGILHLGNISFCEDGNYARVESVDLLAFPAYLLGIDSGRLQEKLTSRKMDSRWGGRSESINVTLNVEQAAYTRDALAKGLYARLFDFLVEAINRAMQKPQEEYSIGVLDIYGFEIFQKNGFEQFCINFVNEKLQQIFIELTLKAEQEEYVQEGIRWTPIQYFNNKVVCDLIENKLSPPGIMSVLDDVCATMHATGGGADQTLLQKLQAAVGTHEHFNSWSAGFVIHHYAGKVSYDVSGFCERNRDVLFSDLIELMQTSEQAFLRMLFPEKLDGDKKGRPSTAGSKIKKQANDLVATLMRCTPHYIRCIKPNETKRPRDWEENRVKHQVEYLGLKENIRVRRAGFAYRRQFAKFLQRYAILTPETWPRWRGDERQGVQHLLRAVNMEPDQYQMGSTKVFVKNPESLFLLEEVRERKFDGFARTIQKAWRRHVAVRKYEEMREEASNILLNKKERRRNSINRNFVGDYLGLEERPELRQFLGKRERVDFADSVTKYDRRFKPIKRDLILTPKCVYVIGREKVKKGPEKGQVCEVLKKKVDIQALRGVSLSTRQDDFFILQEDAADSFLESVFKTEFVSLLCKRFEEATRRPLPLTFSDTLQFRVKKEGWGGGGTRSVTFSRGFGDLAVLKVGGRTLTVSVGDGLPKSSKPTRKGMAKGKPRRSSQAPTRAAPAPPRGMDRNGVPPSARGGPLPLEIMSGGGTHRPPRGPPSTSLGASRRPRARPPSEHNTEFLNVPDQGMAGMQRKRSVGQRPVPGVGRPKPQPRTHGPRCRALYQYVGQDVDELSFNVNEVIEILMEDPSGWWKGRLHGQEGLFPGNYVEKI
Put plainly: co-IP; HEK293T cells transfected with plasmids; lysates immunoprecipitated with anti-Flag antibody, immunoblot. A general note: In western blotting, separated proteins are transferred to a membrane and probed.

Assay [2] addresses AP2A1, endogenous in THP-1 cells (human (endogenous in THP-1)) (UniProt O95782). Briefly: co-IP; endogenous proteins; WT control THP-1 cells (and MYO1F-KO cells for comparison) stimulated with HKCA (MOI = 2); lysates immunoprecipitated with anti-AP2A1 or anti-MYO1F antibody, Western blot.

Take “AP2A1, expressed from a plasmid in HEK293T cells (from UniProt O95782 1-977)”: in assay [1], the binding result is listed as “binds”.

B1: MYO1F, endogenous in THP-1 cells (protein, UniProt O00160 1-1098)
chain: MGSKERFHWQSHNVKQSGVDDMVLLPQITEDAIAANLRKRFMDDYIFTYIGSVLISVNPFKQMPYFTDREIDLYQGAAQYENPPHIYALTDNMYRNMLIDCENQCVIISGESGAGKTVAAKYIMGYISKVSGGGEKVQHVKDIILQSNPLLEAFGNAKTVRNNNSSRFGKYFEIQFSRGGEPDGGKISNFLLEKSRVVMQNENERNFHIYYQLLEGASQEQRQNLGLMTPDYYYYLNQSDTYQVDGTDDRSDFGETLSAMQVIGIPPSIQQLVLQLVAGILHLGNISFCEDGNYARVESVDLLAFPAYLLGIDSGRLQEKLTSRKMDSRWGGRSESINVTLNVEQAAYTRDALAKGLYARLFDFLVEAINRAMQKPQEEYSIGVLDIYGFEIFQKNGFEQFCINFVNEKLQQIFIELTLKAEQEEYVQEGIRWTPIQYFNNKVVCDLIENKLSPPGIMSVLDDVCATMHATGGGADQTLLQKLQAAVGTHEHFNSWSAGFVIHHYAGKVSYDVSGFCERNRDVLFSDLIELMQTSEQAFLRMLFPEKLDGDKKGRPSTAGSKIKKQANDLVATLMRCTPHYIRCIKPNETKRPRDWEENRVKHQVEYLGLKENIRVRRAGFAYRRQFAKFLQRYAILTPETWPRWRGDERQGVQHLLRAVNMEPDQYQMGSTKVFVKNPESLFLLEEVRERKFDGFARTIQKAWRRHVAVRKYEEMREEASNILLNKKERRRNSINRNFVGDYLGLEERPELRQFLGKRERVDFADSVTKYDRRFKPIKRDLILTPKCVYVIGREKVKKGPEKGQVCEVLKKKVDIQALRGVSLSTRQDDFFILQEDAADSFLESVFKTEFVSLLCKRFEEATRRPLPLTFSDTLQFRVKKEGWGGGGTRSVTFSRGFGDLAVLKVGGRTLTVSVGDGLPKSSKPTRKGMAKGKPRRSSQAPTRAAPAPPRGMDRNGVPPSARGGPLPLEIMSGGGTHRPPRGPPSTSLGASRRPRARPPSEHNTEFLNVPDQGMAGMQRKRSVGQRPVPGVGRPKPQPRTHGPRCRALYQYVGQDVDELSFNVNEVIEILMEDPSGWWKGRLHGQEGLFPGNYVEKI
As to B1, in assay [2], the binding entry is “binds”.
